Test [1] has as its target T1, TBX3 (endogenous, human) (human (endogenous in HEK293)) (UniProt O15119).
T1 sequence: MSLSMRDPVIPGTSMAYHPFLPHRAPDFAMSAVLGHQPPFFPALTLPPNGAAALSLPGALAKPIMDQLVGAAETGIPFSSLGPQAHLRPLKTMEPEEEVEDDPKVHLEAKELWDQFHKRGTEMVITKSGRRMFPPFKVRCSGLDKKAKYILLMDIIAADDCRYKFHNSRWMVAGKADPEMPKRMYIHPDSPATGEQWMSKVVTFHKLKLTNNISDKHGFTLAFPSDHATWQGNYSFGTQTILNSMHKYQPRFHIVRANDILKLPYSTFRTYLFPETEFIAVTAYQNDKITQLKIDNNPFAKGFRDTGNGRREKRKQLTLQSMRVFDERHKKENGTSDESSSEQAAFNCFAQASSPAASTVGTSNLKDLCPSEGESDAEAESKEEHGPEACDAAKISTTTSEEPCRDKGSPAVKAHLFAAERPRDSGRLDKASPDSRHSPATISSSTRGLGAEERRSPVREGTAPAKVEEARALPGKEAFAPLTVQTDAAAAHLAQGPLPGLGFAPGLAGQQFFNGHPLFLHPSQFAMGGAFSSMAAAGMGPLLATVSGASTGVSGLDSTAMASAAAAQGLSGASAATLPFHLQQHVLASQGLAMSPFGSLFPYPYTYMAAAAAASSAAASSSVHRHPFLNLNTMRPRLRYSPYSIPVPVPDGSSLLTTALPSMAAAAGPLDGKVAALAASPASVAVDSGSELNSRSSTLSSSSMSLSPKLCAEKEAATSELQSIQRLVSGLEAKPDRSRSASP
The test can be described thus: affinity purification with mass spectrometry; IP of HEK293 lysates with a custom polyclonal antibody against a C-terminal peptide of TBX3; SDS-PAGE bands, tandem MS; N = 4; only proteins in at least two IP/MS datasets and not in negative control IgG IPs.

Sequences of proteins named here, by UniProt entry; tags and fusion partners are left off.
UniProt O00571: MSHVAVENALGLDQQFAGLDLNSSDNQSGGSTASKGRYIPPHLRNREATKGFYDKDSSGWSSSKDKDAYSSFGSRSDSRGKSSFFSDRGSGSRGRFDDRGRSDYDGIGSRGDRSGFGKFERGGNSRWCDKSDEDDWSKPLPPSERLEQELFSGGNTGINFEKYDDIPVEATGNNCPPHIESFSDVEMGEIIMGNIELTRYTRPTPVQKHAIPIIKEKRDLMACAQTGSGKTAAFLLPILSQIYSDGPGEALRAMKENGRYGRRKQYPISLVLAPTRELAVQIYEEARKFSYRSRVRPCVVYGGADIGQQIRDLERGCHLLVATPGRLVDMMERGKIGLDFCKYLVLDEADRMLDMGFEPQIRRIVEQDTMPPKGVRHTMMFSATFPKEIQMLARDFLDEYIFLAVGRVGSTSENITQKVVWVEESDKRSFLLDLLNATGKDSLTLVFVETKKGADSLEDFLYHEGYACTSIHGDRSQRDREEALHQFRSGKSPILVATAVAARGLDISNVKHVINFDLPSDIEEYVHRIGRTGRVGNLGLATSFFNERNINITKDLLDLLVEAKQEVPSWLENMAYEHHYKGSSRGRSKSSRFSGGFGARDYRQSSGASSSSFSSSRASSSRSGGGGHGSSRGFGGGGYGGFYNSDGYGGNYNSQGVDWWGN
UniProt P17844: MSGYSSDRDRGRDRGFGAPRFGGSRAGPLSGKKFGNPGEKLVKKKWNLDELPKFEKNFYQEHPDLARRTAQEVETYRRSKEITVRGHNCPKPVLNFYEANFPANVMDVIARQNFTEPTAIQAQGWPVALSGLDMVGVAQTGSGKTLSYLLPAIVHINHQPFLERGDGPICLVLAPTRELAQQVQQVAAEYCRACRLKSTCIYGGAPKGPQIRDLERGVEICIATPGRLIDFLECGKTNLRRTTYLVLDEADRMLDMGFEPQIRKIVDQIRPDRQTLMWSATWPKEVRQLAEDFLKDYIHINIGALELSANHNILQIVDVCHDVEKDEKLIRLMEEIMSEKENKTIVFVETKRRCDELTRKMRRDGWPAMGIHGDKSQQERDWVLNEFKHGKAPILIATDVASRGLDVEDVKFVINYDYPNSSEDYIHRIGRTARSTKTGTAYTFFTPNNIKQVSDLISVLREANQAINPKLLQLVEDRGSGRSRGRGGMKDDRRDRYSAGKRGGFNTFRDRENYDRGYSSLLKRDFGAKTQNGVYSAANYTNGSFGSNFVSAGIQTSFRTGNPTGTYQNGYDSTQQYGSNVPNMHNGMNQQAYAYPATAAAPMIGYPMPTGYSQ
UniProt P34931: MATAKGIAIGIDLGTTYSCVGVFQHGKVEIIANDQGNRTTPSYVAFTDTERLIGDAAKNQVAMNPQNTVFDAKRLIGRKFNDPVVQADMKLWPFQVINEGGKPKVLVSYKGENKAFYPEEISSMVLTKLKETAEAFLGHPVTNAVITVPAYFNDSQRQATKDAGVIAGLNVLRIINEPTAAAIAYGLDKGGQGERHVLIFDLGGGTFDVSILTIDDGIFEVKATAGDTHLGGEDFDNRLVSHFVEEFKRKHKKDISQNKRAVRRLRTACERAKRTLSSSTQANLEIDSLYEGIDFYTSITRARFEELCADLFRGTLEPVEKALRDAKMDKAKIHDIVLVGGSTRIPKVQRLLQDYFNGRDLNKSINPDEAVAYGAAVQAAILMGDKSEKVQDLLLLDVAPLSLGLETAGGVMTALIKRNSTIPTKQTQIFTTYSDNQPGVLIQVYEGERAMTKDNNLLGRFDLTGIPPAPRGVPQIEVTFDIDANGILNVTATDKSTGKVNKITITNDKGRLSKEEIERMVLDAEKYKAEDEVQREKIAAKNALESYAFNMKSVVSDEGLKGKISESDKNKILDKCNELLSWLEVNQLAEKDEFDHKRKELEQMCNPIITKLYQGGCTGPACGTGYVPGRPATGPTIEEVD
UniProt Q32P51: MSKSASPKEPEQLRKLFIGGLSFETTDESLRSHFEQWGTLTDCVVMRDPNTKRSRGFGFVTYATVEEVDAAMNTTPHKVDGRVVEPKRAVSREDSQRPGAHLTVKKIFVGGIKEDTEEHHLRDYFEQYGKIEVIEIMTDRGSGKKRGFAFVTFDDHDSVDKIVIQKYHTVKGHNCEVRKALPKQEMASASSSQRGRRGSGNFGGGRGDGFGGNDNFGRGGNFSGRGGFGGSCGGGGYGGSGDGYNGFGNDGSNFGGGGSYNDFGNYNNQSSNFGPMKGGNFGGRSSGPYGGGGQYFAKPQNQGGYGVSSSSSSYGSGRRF
UniProt P11940: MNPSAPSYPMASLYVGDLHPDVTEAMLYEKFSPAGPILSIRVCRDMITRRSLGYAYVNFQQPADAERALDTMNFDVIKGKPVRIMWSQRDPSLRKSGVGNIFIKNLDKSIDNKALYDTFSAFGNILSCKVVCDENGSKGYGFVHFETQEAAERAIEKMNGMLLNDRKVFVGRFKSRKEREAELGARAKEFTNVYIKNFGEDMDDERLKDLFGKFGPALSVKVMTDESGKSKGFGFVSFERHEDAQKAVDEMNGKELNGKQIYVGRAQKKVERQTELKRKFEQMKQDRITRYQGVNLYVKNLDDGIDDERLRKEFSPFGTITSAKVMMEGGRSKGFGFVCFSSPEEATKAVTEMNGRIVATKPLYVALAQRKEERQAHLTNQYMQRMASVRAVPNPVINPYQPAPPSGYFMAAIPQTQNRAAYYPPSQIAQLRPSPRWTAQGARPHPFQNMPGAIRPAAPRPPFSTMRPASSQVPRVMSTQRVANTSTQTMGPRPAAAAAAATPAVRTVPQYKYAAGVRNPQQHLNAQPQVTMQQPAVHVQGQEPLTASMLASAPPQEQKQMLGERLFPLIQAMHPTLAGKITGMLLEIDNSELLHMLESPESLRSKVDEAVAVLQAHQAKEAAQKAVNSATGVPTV
UniProt Q15365: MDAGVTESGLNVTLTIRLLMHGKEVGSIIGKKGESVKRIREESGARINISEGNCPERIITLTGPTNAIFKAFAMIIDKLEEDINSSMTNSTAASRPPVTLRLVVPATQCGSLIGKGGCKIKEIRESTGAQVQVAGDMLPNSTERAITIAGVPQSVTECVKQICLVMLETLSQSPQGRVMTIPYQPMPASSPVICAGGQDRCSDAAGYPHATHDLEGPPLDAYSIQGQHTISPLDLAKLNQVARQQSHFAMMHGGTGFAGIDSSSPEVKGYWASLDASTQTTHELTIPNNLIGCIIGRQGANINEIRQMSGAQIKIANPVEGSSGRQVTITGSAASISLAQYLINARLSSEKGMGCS
UniProt Q92841: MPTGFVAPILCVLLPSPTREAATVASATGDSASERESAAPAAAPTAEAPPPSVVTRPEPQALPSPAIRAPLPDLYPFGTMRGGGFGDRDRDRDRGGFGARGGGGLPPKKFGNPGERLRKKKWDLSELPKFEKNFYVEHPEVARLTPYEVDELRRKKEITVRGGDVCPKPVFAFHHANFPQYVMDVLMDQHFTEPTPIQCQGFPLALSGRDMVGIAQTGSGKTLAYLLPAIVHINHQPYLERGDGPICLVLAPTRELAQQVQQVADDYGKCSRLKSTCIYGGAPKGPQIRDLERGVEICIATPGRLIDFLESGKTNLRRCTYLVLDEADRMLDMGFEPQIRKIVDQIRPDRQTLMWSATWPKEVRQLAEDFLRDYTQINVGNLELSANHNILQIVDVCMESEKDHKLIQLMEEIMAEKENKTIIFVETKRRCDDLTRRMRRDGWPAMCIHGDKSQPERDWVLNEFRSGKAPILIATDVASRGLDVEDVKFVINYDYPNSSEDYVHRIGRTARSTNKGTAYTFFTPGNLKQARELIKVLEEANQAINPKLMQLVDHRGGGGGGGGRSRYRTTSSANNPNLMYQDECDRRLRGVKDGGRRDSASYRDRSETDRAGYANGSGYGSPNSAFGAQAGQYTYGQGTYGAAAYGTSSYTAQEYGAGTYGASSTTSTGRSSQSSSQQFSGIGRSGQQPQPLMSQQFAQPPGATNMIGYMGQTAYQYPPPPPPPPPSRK
UniProt O14980: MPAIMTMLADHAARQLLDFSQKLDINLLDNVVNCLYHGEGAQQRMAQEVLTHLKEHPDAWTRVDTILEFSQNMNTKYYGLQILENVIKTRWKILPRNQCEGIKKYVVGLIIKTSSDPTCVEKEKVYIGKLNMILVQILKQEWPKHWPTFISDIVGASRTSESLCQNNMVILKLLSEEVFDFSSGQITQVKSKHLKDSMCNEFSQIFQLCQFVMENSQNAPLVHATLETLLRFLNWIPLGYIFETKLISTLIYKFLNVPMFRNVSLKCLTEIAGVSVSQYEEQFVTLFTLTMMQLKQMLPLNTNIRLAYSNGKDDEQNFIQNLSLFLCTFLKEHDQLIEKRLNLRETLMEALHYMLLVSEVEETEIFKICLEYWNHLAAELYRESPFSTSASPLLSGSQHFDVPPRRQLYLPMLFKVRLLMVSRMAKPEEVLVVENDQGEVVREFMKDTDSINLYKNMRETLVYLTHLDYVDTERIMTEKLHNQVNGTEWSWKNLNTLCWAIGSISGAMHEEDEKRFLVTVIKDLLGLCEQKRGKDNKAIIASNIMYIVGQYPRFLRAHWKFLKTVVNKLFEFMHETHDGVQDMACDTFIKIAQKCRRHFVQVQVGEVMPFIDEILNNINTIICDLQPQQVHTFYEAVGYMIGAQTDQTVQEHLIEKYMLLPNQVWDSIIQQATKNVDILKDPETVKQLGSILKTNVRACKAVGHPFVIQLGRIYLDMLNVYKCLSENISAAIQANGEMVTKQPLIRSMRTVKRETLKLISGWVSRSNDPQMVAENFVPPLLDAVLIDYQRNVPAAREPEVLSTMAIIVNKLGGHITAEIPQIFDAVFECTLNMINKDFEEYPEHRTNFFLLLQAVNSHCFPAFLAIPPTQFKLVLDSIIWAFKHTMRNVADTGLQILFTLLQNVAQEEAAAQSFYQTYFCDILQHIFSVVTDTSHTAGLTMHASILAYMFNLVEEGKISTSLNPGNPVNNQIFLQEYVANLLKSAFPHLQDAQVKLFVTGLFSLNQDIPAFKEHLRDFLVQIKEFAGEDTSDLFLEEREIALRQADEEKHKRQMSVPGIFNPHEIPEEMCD
UniProt P12956: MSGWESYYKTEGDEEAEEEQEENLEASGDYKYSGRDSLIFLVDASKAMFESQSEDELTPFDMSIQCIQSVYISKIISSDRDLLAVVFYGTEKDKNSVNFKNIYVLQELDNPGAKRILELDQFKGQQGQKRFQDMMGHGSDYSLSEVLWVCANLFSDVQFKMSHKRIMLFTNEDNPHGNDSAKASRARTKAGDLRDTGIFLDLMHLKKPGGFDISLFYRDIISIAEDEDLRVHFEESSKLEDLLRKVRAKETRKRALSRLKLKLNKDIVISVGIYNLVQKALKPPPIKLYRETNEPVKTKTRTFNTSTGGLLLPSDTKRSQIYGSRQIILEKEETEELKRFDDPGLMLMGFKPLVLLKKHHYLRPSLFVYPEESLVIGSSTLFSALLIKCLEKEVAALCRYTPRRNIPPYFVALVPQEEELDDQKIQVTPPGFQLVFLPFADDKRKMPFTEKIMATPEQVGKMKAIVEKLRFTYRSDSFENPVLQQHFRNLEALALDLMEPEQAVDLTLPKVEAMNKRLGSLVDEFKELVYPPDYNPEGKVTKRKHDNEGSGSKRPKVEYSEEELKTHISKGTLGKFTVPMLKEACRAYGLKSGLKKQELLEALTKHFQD
UniProt Q8VEK3: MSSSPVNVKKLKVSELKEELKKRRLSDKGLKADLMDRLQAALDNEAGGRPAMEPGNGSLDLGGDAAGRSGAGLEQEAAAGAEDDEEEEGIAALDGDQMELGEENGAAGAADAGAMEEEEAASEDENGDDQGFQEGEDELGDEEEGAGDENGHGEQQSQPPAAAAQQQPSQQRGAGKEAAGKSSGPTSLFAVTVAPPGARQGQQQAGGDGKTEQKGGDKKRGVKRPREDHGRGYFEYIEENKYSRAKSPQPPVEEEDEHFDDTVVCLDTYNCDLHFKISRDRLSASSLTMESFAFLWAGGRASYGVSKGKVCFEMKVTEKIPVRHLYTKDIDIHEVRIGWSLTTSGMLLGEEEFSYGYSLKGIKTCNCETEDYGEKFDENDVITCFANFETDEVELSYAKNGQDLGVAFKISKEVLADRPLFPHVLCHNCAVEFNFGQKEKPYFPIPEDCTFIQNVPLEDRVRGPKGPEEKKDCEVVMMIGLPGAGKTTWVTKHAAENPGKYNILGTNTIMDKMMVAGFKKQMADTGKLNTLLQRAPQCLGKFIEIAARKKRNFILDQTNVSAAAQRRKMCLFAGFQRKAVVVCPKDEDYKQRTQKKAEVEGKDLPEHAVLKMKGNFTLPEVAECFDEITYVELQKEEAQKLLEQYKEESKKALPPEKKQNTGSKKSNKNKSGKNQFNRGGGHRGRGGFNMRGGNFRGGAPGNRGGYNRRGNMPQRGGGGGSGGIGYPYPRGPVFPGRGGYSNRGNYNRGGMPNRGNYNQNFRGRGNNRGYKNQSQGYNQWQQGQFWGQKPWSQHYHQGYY

Test [2] addresses T2, Tbx3 (endogenous, mouse) (mouse (endogenous in e10.5 embryos)) (UniProt P70324).
T2 sequence: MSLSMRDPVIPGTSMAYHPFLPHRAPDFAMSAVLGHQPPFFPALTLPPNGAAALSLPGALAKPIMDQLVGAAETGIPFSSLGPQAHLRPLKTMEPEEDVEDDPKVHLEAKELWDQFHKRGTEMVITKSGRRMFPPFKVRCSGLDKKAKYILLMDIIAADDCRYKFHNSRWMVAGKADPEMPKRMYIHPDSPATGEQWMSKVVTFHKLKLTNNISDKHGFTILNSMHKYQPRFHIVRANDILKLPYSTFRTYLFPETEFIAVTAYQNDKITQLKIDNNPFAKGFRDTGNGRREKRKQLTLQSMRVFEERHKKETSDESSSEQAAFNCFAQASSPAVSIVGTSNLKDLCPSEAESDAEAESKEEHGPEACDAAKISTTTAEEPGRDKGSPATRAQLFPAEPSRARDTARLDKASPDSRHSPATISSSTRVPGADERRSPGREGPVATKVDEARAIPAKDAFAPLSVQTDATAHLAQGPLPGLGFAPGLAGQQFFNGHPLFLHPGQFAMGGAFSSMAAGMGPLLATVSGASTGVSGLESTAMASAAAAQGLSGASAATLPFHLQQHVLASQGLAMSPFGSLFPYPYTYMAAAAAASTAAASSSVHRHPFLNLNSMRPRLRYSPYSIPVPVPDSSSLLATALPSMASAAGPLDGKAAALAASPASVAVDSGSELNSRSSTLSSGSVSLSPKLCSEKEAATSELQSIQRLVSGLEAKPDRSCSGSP
The test can be described thus: affinity purification with mass spectrometry; IP of e10.5 mouse embryo lysates with a custom polyclonal antibody against a C-terminal peptide of TBX3; SDS-PAGE bands, tandem MS; N = 3; only proteins in at least two IP/MS datasets and not in negative control IgG IPs.

This note sets out measurements from publication PMC3967948.

No constants are given. Whether binding was seen depends on the method and setting. In cells and extracts the contact can be indirect. A yes stands for co-enrichment or nearness to the bait. Other partners may have been found. A no says only that the protein was not detected with the bait.

Consider “ATP-dependent RNA helicase DDX3X (from UniProt O00571 1-662)”, for which the binding result in test [1] is on record as “binds”.

Consider “ATP-dependent RNA helicase DDX5 (from UniProt P17844 1-614)”, for which the binding result in test [1] is given as “binds”. Still for that read-out and setting: with “Heat shock 70 kDa protein 1-like (from UniProt P34931 1-641)” the entry was “binds”; with “Heat shock 70 kDa protein 1A; heat shock 70 kDa protein 1B (from UniProt P0DMV8 1-641)”, “binds”; with “Heat shock 70 kDa protein 2 (from UniProt P54652 1-639)”, “binds”. Still for that read-out and setting: the same measure for “Heat shock 70 kDa protein 8 (from UniProt P11142 1-646)”: “binds”; for “Heterogeneous nuclear ribonucleoprotein A1-like 2 (from UniProt Q32P51 1-320)”: “binds”. On the same count and under the same terms, with “Heterogeneous nuclear ribonucleoprotein H1 (from UniProt P31943 1-449)” the entry was “binds”; with “Heterogeneous nuclear ribonucleoprotein K (from UniProt P61978 1-463)”, “binds”. As to PTB1 (from UniProt P26599 1-557), the binding result in test [1] is “binds”.

Turning to “Poly(A) binding protein, cytoplasmic 1 (from UniProt P11940 1-636)”, the binding entry in test [1] is given as “binds”. Still for that read-out and setting: the same measure for “Poly(rC) binding protein 1 (from UniProt Q15365 1-356)”: “binds”. On to “Probable ATP-dependent RNA helicase DDX17 (from UniProt Q92841 1-729)”, for which the binding result in test [1] is “binds”.

For the molecule “SC35 (mouse) (from UniProt Q62093 1-221)”, the binding result in test [2] is “no binding”. For XPO1 (from UniProt O14980 1-1071), in test [1], the binding entry is “binds”. Same read-out and setting: with XRCC6 (from UniProt P12956 1-609) the entry was “binds”. Consider “hnrnp k (mouse) (from UniProt P61979 1-463)”, for which the binding entry in test [2] was “binds”. The same measure, in the same setting: with “hnrnp u (mouse) (from UniProt Q8VEK3 1-800)” the entry was “binds”.

B1: Ribonucleoprotein PTB-binding 1 (protein, UniProt Q8IY67 1-606)
chain: MAADVSVTHRPPLSPKSGAEVEAGDAAERRAPEEELPPLDPEEIRKRLEHTERQFRNRRKILIRGLPGDVTNQEVHDLLSDYELKYCFVDKYKGTAFVTLLNGEQAEAAINAFHQSRLRERELSVQLQPTDALLCVANLPPSLTQQQFEELVRPFGSLERCFLVYSERTGQSKGYGFAEYMKKDSAARAKSDLLGKPLGPRTLYVHWTDAGQLTPALLHSRCLCVDRLPPGFNDVDALCRALSAVHSPTFCQLACGQDGQLKGFAVLEYETAEMAEEAQQQADGLSLGGSHLRVSFCAPGPPGRSMLAALIAAQATALNRGKGLLPEPNILQLLNNLGPSASLQLLLNPLLHGSAGGKQGLLGAPPAMPLLNGPALSTALLQLALQTQGQKKPGILGDSPLGALQPGAQPANPLLGELPAGGGLPPELPPRRGKPPPLLPSVLGPAGGDREALGLGPPAAQLTPPPAPVGLRGSGLRGPLSHFYSGSPTSYFTSGLQAGLKQSHLSKAIGSSPLGSGEGLLGLSPGPNGHSHLLKVRAGGGDMQGWEAPAPQRPLTRPALPSVSRPHWAARNAALPTCCPRPSPAQKAAMWASTPRASAATTRTPT
Turning to B1, the binding result in test [1] is recorded as “binds”.

B2: Heterogeneous nuclear ribonucleoprotein M (protein, UniProt P52272 1-730)
chain: MAAGVEAAAEVAATEIKMEEESGAPGVPSGNGAPGPKGEGERPAQNEKRKEKNIKRGGNRFEPYANPTKRYRAFITNIPFDVKWQSLKDLVKEKVGEVTYVELLMDAEGKSRGCAVVEFKMEESMKKAAEVLNKHSLSGRPLKVKEDPDGEHARRAMQKVMATTGGMGMGPGGPGMITIPPSILNNPNIPNEIIHALQAGRLGSTVFVANLDYKVGWKKLKEVFSMAGVVVRADILEDKDGKSRGIGTVTFEQSIEAVQAISMFNGQLLFDRPMHVKMDERALPKGDFFPPERPQQLPHGLGGIGMGLGPGGQPIDANHLNKGIGMGNIGPAGMGMEGIGFGINKMGGMEGPFGGGMENMGRFGSGMNMGRINEILSNALKRGEIIAKQGGGGGGGSVPGIERMGPGIDRLGGAGMERMGAGLGHGMDRVGSEIERMGLVMDRMGSVERMGSGIERMGPLGLDHMASSIERMGQTMERIGSGVERMGAGMGFGLERMAAPIDRVGQTIERMGSGVERMGPAIERMGLSMERMVPAGMGAGLERMGPVMDRMATGLERMGANNLERMGLERMGANSLERMGLERMGANSLERMGPAMGPALGAGIERMGLAMGGGGGASFDRAIEMERGNFGGSFAGSFGGAGGHAPGVARKACQIFVRNLPFDFTWKMLKDKFNECGHVLYADIKMENGKSKGCGVVKFESPEVAERACRMMNGMKLSGREIDVRIDRNA
Take B2: the binding entry in test [1] was “binds”.

B3: SC35 (human) (protein, UniProt Q01130 1-221)
chain: MSYGRPPPDVEGMTSLKVDNLTYRTSPDTLRRVFEKYGRVGDVYIPRDRYTKESRGFAFVRFHDKRDAEDAMDAMDGAVLDGRELRVQMARYGRPPDSHHSRRGPPPRRYGGGGYGRRSRSPRRRRRSRSRSRSRSRSRSRSRYSRSKSRSRTRSRSRSTSKSRSARRSKSKSSSVSRSRSRSRSRSRSRSPPPVSKRESKSRSRSKSPPKSPEEEGAVSS
With B3, the binding entry in test [1] is reported as “no binding”.

B4: Raver 1 (mouse) (protein, UniProt Q9CW46 1-748)
chain: MAADVSVTHRPPLSPEAEAEAETPETVDRRAPEQELPPLDPEEIRKRLEHTERQFRNRRKILIRGLPGDVTNQEVHDLLSDYELKYCFVDKYKGTAFVTLLNGEQAEAAINTFHQSRLRERELSVQLQPTDALLCVANLPPSLTQAQFEELVRPFGSLERCFLVYSERTGHSKGYGFAEYMKKDSAARAKSDLLGKPLGPRTLYVHWTDAGQLTPALLHSRCLCVDHLPPGFSDVDALRRALSVVYTPTFCQLACGQDGQLKGFAVLEYETAEMAEAAQERADGQALGDSHLRVSFCAPGPPGRSMLAALIAAQATALNRGKGLLPEPNLLQLLNNLGPSASLQLLLNPLLHGGASGKQGLLGAPPAMPLLSGPALSTALLQLALQSQSQNQSQGQKKPGILGDSPLGTLQAGAQPSNSLLGELSAGGGLAPELPPRRGKPQPLLPPLLGPSGGDREPMGLGPPATQLTPPPAPVGLRGSNHRGLPKDSGPLPTPPGVSLLGEPPKDYRIPLNPYLNLHSLLPSSNLAGKETRGWGGSGRGRRPAEPPLPSPAVPGGGSGSNNGNKAFQMKSRLLSPIASNRLPPEPGLPDSYGFDYPTDVGPRRLFSHPREPTLGAHGPSRHKMSPPPSSFNEPRSGGGSGGPLSHFYSGSPTSYFTSGLQAGLKQSHLNKAVGSSPMGSSEGLLGLGPGPNGHSHLLKTPLGGQKRSFSHLLPSPEPSPEGSYVGQHSQGLGGHYADSYLKRKRIF
On to B4, for which the binding result in test [2] is recorded as “binds”.
